Assay results reported in PubChem BioAssay AID192 (DTP/NCI, 2004).
The list shows only some results of the screen, not a fair sample: it gathers tests that were run many times, whatever their T/C, doses with no T/C, and many T/C values between a quarter and a half above the control. Other doses and runs of a compound stand elsewhere. T/C: endpoint of the treated group in % of that of the vehicle group. Some entries give survivors of the animals treated and no T/C: the source files T/C as zero there, which appears to mark a toxic dose or a test without result, not a measured value. Some doses without a T/C left all or most animals alive at the check, yet need not have been tolerated: the source hardly ever lists a survival T/C far under the control, and the zero likely stands for such cases as well. Counts of survivors are from the toxicity check (mostly the fifth day) where no day follows; animals may have died later. Schedules are NCI's codes, read here as Q, the interval in days (D) or hours (H), X, the number of doses. Some entries were tested several times; the values are given in rising order. For survival time, the PubChem record calls one and a half times the control and up active, and a quarter to a half above the control has no call in these data; cut-offs in other NCI protocols can differ. Some T/C values are followed by the survivors on the day toxicity was checked, most often the fifth; where none is given, no animal had died by that day.

System: BDF1 mice, B16 melanoma ip, median survival T/C
Assay: NCI In Vivo Anticancer Drug Screen. Data for tumor model B16 Melanoma (intraperitoneal) in B6D2F1 (BDF1) mice
Details: T/C endpoint: median survival time, higher T/C = longer survival
Summary of the method: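 Survival or tumor size is measured after treatment of tumor-bearing mice and normalised to the vehicle-treated control group.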

[1] = dose: 50.0 mg/kg/injection, schedule: Q01DX009 (ip), vehicle: saline
[2] = dose: 100.0 mg/kg/injection, schedule: Q01DX009 (ip), vehicle: saline
[3] = dose: 100.0 mg/kg/injection, schedule: Q01DX009 (ip), vehicle: Klucel (hydroxypropylcellulose) (HPC)
[4] = dose: 200.0 mg/kg/injection, schedule: Q01DX009 (ip), vehicle: Klucel (hydroxypropylcellulose) (HPC)
[5] = dose: 400.0 mg/kg/injection, schedule: Q01DX009 (ip), vehicle: Klucel (hydroxypropylcellulose) (HPC)
[6] = dose: 100.0 mg/kg/injection, schedule: Q01DX009 (ip), vehicle: saline with Tween-80
[7] = dose: 25.0 mg/kg/injection, schedule: Q01DX009 (ip), vehicle: water
[8] = dose: 50.0 mg/kg/injection, schedule: Q01DX009 (ip), vehicle: water
[9] = dose: 25.0 mg/kg/injection, schedule: Q01DX009 (ip), vehicle: saline
[10] = dose: 0.39 mg/kg/injection, schedule: Q01DX009 (ip), vehicle: Klucel (hydroxypropylcellulose) (HPC)

SMILES: C[n+]1c2ccccc2c(Nc2ccc(NS(=O)(=O)CCCCN=C(N)N)cc2)c2ccc(N)cc21
- T/C (dose: 0.75 mg/kg/injection, schedule: Q01DX009 (ip), vehicle: Klucel (hydroxypropylcellulose) (HPC)): 127 % of control
- T/C (dose: 1.5 mg/kg/injection, schedule: Q01DX009 (ip), vehicle: Klucel (hydroxypropylcellulose) (HPC)): 142 % of control
- T/C (dose: 1.5 mg/kg/injection, schedule: Q01DX009 (ip), vehicle: water): 132 and 138 % of control
- T/C (dose: 3.0 mg/kg/injection, schedule: Q01DX009 (ip), vehicle: water): 148 % of control
- T/C (dose: 3.12 mg/kg/injection, schedule: Q04DX003 (ip), vehicle: water): 131 % of control
- T/C (dose: 6.25 mg/kg/injection, schedule: Q04DX003 (ip), vehicle: water): 144 % of control
- survivor count (dose: 12.0 mg/kg/injection, schedule: Q01DX009 (ip), vehicle: Klucel (hydroxypropylcellulose) (HPC)): 10 of 10
- survivor count (dose: 24.0 mg/kg/injection, schedule: Q01DX009 (ip), vehicle: Klucel (hydroxypropylcellulose) (HPC)): 10 of 10
- survivor count (dose: 24.0 mg/kg/injection, schedule: Q01DX009 (ip), vehicle: water): 9 of 10
- survivor count (dose: 50.0 mg/kg/injection, schedule: Q04DX003 (ip), vehicle: water): 5 of 10

SMILES: Cc1cc(SCC(=O)c2ccc(Br)cc2)cc(C)[o+]1
- survivor count [1]: 8 of 10
- survivor count [2]: 5 of 10
- survivor count (dose: 200.0 mg/kg/injection, schedule: Q01DX009 (ip), vehicle: saline): 7 of 10

SMILES: COC(=O)NC1C(C)OC(OC2C/C=C(/C)C3C=CC4C(OC5CC(OC6CCC(OC7CC(O)C(OC8CCC(O)C(C)O8)C(C)O7)C(C)O6)C(OC(C)=O)C(C)O5)C(C)CC(C)C4C3(C)/C(O)=C3/C(=O)OC4(CC(C=O)=CC(O)C4/C=C\2C)C3=O)CC1(C)[N+](=O)[O-] (stereo not drawn)
- T/C (dose: 1.25 mg/kg/injection, schedule: Q01DX009 (ip), vehicle: water): 129 % of control
- survivor count (dose: 20.0 mg/kg/injection, schedule: Q01DX009 (ip), vehicle: water): 5 of 10

SMILES: CCN(C(=O)c1ccc(Cl)cc1Cl)c1ccccc1C
- survivor count [3]: 10 of 10
- survivor count [4]: 10 of 10
- survivor count [5]: 10 of 10

SMILES: COC(=O)[C@@H]1[C@H](O)[C@H](C)[C@H](O)[C@H](C)/C=C\C=C(C)C(=O)Nc2c(C)c(OC(C)=O)c3c(c2O)C(=O)C(C)=C2OCOC(=C23)C(C)=C[C@@](C)(O)[C@H](O)[C@@H](C)[C@H]1OC(C)=O
- survivor count [5]: 10 of 10

SMILES: O=C(O)CSC(CC(=O)O)C(=O)O (stereo not drawn)
- T/C [2]: 125 % of control

SMILES: COC(=O)C(CCCCN=Cc1ccccc1O)N=Cc1ccccc1O.[Ni] (stereo not drawn)
- survivor count (dose: 50.0 mg/kg/injection, schedule: Q04DX003 (ip), vehicle: saline with Tween-80): 10 of 10

SMILES: CCOc1ccccc1NC(=O)CC(C)=O
- survivor count [5]: 7 of 10

SMILES: O=C(Nc1ccc(Cl)c(Cl)c1)Nc1c(Oc2ccc(Cl)c(Cl)c2)ccc(Cl)c1S(=O)(=O)O
- T/C (dose: 3.12 mg/kg/injection, schedule: Q01DX009 (ip), vehicle: saline with Tween-80): 142 % of control
- T/C (dose: 12.5 mg/kg/injection, schedule: Q01DX009 (ip), vehicle: saline with Tween-80): 149 % of control
- T/C (dose: 50.0 mg/kg/injection, schedule: Q01DX009 (ip), vehicle: saline with Tween-80): 129 % of control
- T/C [6]: 149 % of control

SMILES: CCCC1CC[N-]CC1.CCCC1CC[N-]CC1.[Br][Pt+2]([Br])([Br])[Br]
- survivor count [7]: 10 of 10
- survivor count [8]: 9 of 10

SMILES: N=[N+]=CC(=O)OCC(N)C(=O)O (stereo not drawn)
- survivor count (dose: 3.1 mg/kg/injection, schedule: Q01DX009 (ip), vehicle: other): 6 of 6
- survivor count (dose: 6.2 mg/kg/injection, schedule: Q01DX009 (ip), vehicle: other): 6 of 6
- survivor count (dose: 12.5 mg/kg/injection, schedule: Q01DX009 (ip), vehicle: other): 6 of 6
- survivor count (dose: 25.0 mg/kg/injection, schedule: Q01DX009 (ip), vehicle: other): 6 of 6
- survivor count [9]: 10 of 10
- survivor count (dose: 30.0 mg/kg/injection, schedule: Q04DX003 (ip), vehicle: water): 6 of 6
- survivor count (dose: 40.0 mg/kg/injection, schedule: Q04DX003 (ip), vehicle: other): 6 of 6
- survivor count (dose: 1500.0 micrograms/kg/injection, schedule: Q01DX009 (ip), vehicle: water): 4 of 6

SMILES: Nc1ccc(OCc2ccc(S(=O)(=O)F)c(Cl)c2)c(Cl)c1
- survivor count [5]: 6 of 10

SMILES: COC(=O)[C@H]1[C@H]2C[C@@H]3c4[nH]c5cc(OC)ccc5c4CCN3C[C@H]2C[C@@H](OC(=O)c2cccc(N(C)C)c2)[C@@H]1OC
- survivor count [10]: 10 of 10
- survivor count (dose: 3.12 mg/kg/injection, schedule: Q01DX009 (ip), vehicle: Klucel (hydroxypropylcellulose) (HPC)): 9 of 10
- survivor count (dose: 6.25 mg/kg/injection, schedule: Q01DX009 (ip), vehicle: Klucel (hydroxypropylcellulose) (HPC)): 9 of 10 and 10 of 10

SMILES: COc1ccc(-c2csc(=[N+]3CCCCC3)s2)cc1
- survivor count [8]: 0 of 10 and 1 of 10

SMILES: COC1OC(CO)C(O)C(NC(=O)N(C)N=O)C1O (stereo not drawn)
- T/C (dose: 12.5 mg/kg/injection, schedule: Q01DX009 (ip), vehicle: saline): 125 % of control
- T/C (dose: 25.0 mg/kg/injection, schedule: Q01DX009 (ip), vehicle: saline, evaluated on day 45): 128 % of control [9 of 10 alive]
- T/C (dose: 25.0 mg/kg/injection, schedule: Q01DX009 (ip), vehicle: saline, evaluated on day 60): 135 % of control
- T/C [1]: 139 % of control
- survivor count (dose: 400.0 mg/kg/injection, schedule: Q01DX009 (ip), vehicle: saline): 9 of 10 and 10 of 10

SMILES: Nc1nc2c(ncn2C2OC(CO)C(O)C2O)c(=O)[nH]1.Nc1nc2c(ncn2C2OC(CO)C(O)C2O)c(=O)[nH]1.[NH2-].[NH2-].[Pt+2] (stereo not drawn)
- T/C [7]: 131 % of control
- T/C [8]: 134 % of control [9 of 10 alive]
- T/C (dose: 100.0 mg/kg/injection, schedule: Q01DX009 (ip), vehicle: water): 131 % of control

SMILES: CCCN(C)/N=N/c1[nH]ncc1C(N)=O
- T/C (dose: 25.0 mg/kg/injection, schedule: Q01DX009 (ip), vehicle: saline with Tween-80): 134 and 146 % of control
- survivor count [6]: 10 of 10

SMILES: COc1cc2c(cc1OC)C1CCN3CCCC3N1CC2 (stereo not drawn)
- survivor count [4]: 2 of 10 and 5 of 10
- survivor count [5]: 0 of 10

SMILES: Nc1n[n+](-c2ccccc2)no1
- T/C (dose: 12.5 mg/kg/injection, schedule: Q01DX009 (ip), vehicle: water): 127 % of control
- T/C [7]: 137 % of control [9 of 10 alive]
- survivor count [7]: 9 of 10
- survivor count [8]: 7 of 10 and 10 of 10

SMILES: Cc1ccc(/C=N\N=C\c2ccc(C)cc2)cc1
- survivor count (dose: 200.0 mg/kg/injection, schedule: Q01DX009 (ip), vehicle: saline with Tween-80): 10 of 10

SMILES: CN1C(=O)CCS(=O)(=O)C1c1ccc(Cl)c(Cl)c1 (stereo not drawn)
- survivor count [10]: 6 of 10
- survivor count (dose: 0.78 mg/kg/injection, schedule: Q01DX009 (ip), vehicle: Klucel (hydroxypropylcellulose) (HPC)): 5 of 10
- survivor count (dose: 25.0 mg/kg/injection, schedule: Q01DX009 (ip), vehicle: Klucel (hydroxypropylcellulose) (HPC)): 10 of 10
- survivor count [3]: 6 of 10
- survivor count [4]: 0 of 10

SMILES: O=Nc1c(O)ccc2ccccc12
- survivor count [3]: 0 of 10

SMILES: Cc1cc(-c2ccc(N=Nc3ccc4c(S(=O)(=O)O)cc(S(=O)(=O)O)c(N)c4c3O)c(C)c2)ccc1N=Nc1ccc2c(S(=O)(=O)O)cc(S(=O)(=O)O)c(N)c2c1O
- T/C [9]: 127 % of control
- survivor count [1]: 10 of 10

SMILES: COc1nc(NC(C)C)nc(NC(C)C)n1
- T/C [6]: 125 % of control

SMILES: ClC1(c2ccccc2)c2ccc(Br)cc2-c2cc(Br)ccc21
- survivor count (dose: 400.0 mg/kg/injection, schedule: Q01DX009 (ip), vehicle: saline with Tween-80): 6 of 6
